The list is a part of this screen's results and no random one: it is rich in T/C values a quarter to a half above the control, in often repeated tests (any T/C) and in doses without a T/C. Further doses and runs are listed elsewhere. T/C: endpoint of the treated group in % of that of the vehicle group. Some doses have a count of surviving animals in place of a T/C: the source holds a T/C of zero for them, seemingly a mark for toxic or unscored doses. Some survivor counts are full or nearly so, which does not show that the dose was tolerated: survival well below the control is almost never listed, so the zero probably covers shortened survival too. Counts of survivors are from the toxicity check (mostly the fifth day) where no day follows; animals may have died later. Schedules are NCI's codes, read here as Q, the interval in days (D) or hours (H), X, the number of doses. Some entries hold several experiments; the results are listed from low to high. Where survival is the endpoint, this PubChem deposit counts one and a half times the control or more as active, and values a quarter to a half above the control carry no call in these data; other NCI protocols may use other cut-offs. Some T/C values are followed by the survivors on the day toxicity was checked, most often the fifth; without a count, all were alive then.
System: P388 leukemia ip, CD2F1 mice, survival T/C
Assay: NCI In Vivo Anticancer Drug Screen. Data for tumor model P388 Leukemia (intraperitoneal) in CD2F1 (CDF1) mice
Details: T/C endpoint: median survival time, higher T/C = longer survival
[1] = dose: 50.0 mg/kg/injection, schedule: Q01DX009 (ip), vehicle: saline
[2] = dose: 200.0 mg/kg/injection, schedule: Q01DX009 (ip), vehicle: saline
[3] = dose: 50.0 mg/kg/injection, schedule: Q01DX005 (ip), vehicle: Klucel (hydroxypropylcellulose) (HPC)
[4] = dose: 200.0 mg/kg/injection, schedule: Q04DX002 (ip), vehicle: Klucel (hydroxypropylcellulose) (HPC)
[5] = dose: 400.0 mg/kg/injection, schedule: Q04DX002 (ip), vehicle: Klucel (hydroxypropylcellulose) (HPC)
[6] = dose: 100.0 mg/kg/injection, schedule: Q01DX005 (ip), vehicle: saline with Tween-80
[7] = dose: 200.0 mg/kg/injection, schedule: Q01DX005 (ip), vehicle: saline with Tween-80
[8] = dose: 400.0 mg/kg/injection, schedule: Q01DX005 (ip), vehicle: saline with Tween-80
[9] = dose: 200.0 mg/kg/injection, schedule: Q01DX005 (ip), vehicle: saline
[10] = dose: 400.0 mg/kg/injection, schedule: Q01DX009 (ip), vehicle: other

Nc1nc2ncn(O)c2c(=O)[nH]1
T/C (dose: 6.25 mg/kg/injection, schedule: Q01DX005 (ip), vehicle: water): 130 % of control
T/C (dose: 12.5 mg/kg/injection, schedule: Q01DX005 (ip), vehicle: water): 130 and 145 % of control
T/C (dose: 25.0 mg/kg/injection, schedule: Q01DX005 (ip), vehicle: water): 126 and 142 % of control
survivor count (dose: 50.0 mg/kg/injection, schedule: Q01DX005 (ip), vehicle: water): 0 of 6 and 5 of 6

CC[C@H]1C[C@H]2CN(CCc3c([nH]c4ccccc34)[C@@](C(=O)OC)(c3cc4c(cc3OC)N(C=O)[C@H]3[C@@](O)(C(=O)OC)[C@H](OC(C)=O)[C@]5(CC)CCCN6CC[C@]43[C@@H]65)C2)C1
T/C (dose: 0.5 mg/kg/injection, schedule: Q01DX001 (ip), vehicle: water): 126 % of control
T/C (dose: 1.0 mg/kg/injection, schedule: Q01DX001 (ip), vehicle: water): 145 and 147 % of control
survivor count (dose: 8.0 mg/kg/injection, schedule: Q01DX001 (ip), vehicle: water): 2 of 6 and 4 of 6
survivor count (dose: 16.0 mg/kg/injection, schedule: Q01DX001 (ip), vehicle: water): 0 of 6

CC(C)NCC(O)COc1ccc(O)c(O)c1 (stereo not drawn)
T/C [1]: 131 % of control
T/C [2]: 125 % of control [5 of 6 alive]

Nc1ccc(O)cc1O
survivor count (dose: 25.0 mg/kg/injection, schedule: Q01DX009 (ip), vehicle: saline): 3 of 6
survivor count [1]: 1 of 6
survivor count (dose: 100.0 mg/kg/injection, schedule: Q01DX009 (ip), vehicle: saline): 0 of 6
survivor count [2]: 0 of 6
survivor count (dose: 400.0 mg/kg/injection, schedule: Q01DX009 (ip), vehicle: saline): 0 of 6
survivor count (dose: 600.0 mg/kg/injection, schedule: Q01DX009 (ip), vehicle: saline): 0 of 6

COC(=O)[C@]12CCC(C)(C)C[C@H]1C1=CC[C@@H]3[C@@]4(C)C[C@H](O)[C@H](OC5OC(CO)C(O)C(O)C5O)C(CO)(CO)[C@@H]4CC[C@@]3(C)[C@]1(C)C[C@H]2O (stereo partly drawn)
survivor count (dose: 25.0 mg/kg/injection, schedule: Q01DX005 (ip), vehicle: Klucel (hydroxypropylcellulose) (HPC)): 2 of 6
survivor count [3]: 0 of 6
survivor count (dose: 100.0 mg/kg/injection, schedule: Q01DX005 (ip), vehicle: Klucel (hydroxypropylcellulose) (HPC)): 0 of 6
survivor count (dose: 200.0 mg/kg/injection, schedule: Q01DX005 (ip), vehicle: Klucel (hydroxypropylcellulose) (HPC)): 0 of 6

[Cu+2].[NH-]CCC[N-]CCCC[N-]CCC[NH-].[O-][Cl+3]([O-])([O-])O
survivor count (dose: 100.0 mg/kg/injection, schedule: Q04DX002 (ip), vehicle: Klucel (hydroxypropylcellulose) (HPC)): 0 of 6
survivor count [4]: 0 of 6
survivor count [5]: 0 of 6

CC1(C)CCC2=C1CC[C@H]1[C@H]2CCC2=CC(=O)CC[C@@]21C
survivor count (dose: 400.0 mg/kg/injection, schedule: Q01DX009 (ip), vehicle: saline with Tween-80): 6 of 6

O=c1c2cnccc2cc2n1CCc1c-2[nH]c2ccccc12
survivor count (dose: 12.5 mg/kg/injection, schedule: Q01DX009 (ip), vehicle: saline with Tween-80): 6 of 6

c1ccc(OCC2CO2)c(OCC2CO2)c1 (stereo not drawn)
T/C (dose: 30.0 mg/kg/injection, schedule: Q01DX005 (ip), vehicle: saline with Tween-80): 121, 123, 128, 132 % of control
T/C (dose: 60.0 mg/kg/injection, schedule: Q01DX005 (ip), vehicle: saline with Tween-80): 120, 135 [5 of 6 alive], 137, 144 % of control
T/C [6]: 143 % of control
T/C (dose: 120.0 mg/kg/injection, schedule: Q01DX005 (ip), vehicle: saline with Tween-80): 155, 161, 163, 234 % of control
T/C [7]: 133 % of control
survivor count [8]: 4 of 6
survivor count (dose: 480.0 mg/kg/injection, schedule: Q01DX005 (ip), vehicle: saline with Tween-80): 5 of 6

COc1ccc(N=Nc2c(C)[nH]n(C)c2=O)cc1
survivor count (dose: 400.0 mg/kg/injection, schedule: Q04DX002 (ip), vehicle: saline with Tween-80): 4 of 6

Cc1cc(O)c2c(c1)C(=O)c1c(c(O)cc(O)c1-c1c(O)cc(O)c3c1C(=O)c1cc(C)cc(O)c1C3=O)C2=O
survivor count [3]: 6 of 6

CCC(C)N(CC(C)C)CC(C)(O)CNc1cc(OC)cc2cccnc12 (stereo not drawn)
survivor count (dose: 100.0 mg/kg/injection, schedule: Q01DX005 (ip), vehicle: saline): 3 of 5
survivor count [9]: 0 of 5

CC(=O)Oc1c(C)c(OC(C)=O)c2[nH]c(Cl)c(C=O)c2c1OC(C)=O
survivor count (dose: 400.0 mg/kg/injection, schedule: Q01DX001 (ip), vehicle: Klucel (hydroxypropylcellulose) (HPC)): 3 of 6

Nc1nc2ccc(NCc3ccc(C(=O)NC(CCC(=O)O)C(=O)O)cc3)cc2c(=O)[nH]1 (stereo not drawn)
T/C [6]: 127 and 135 % of control
survivor count [7]: 0 of 5
survivor count [8]: 0 of 5

CC1CC2OC(/C=C/C=C/C=C\C=C\C=C\C(O)=C3\C(=O)C(C(C)C)N(C)C3=O)C(O)C2O1 (stereo not drawn)
T/C (dose: 6.0 mg/kg/injection, schedule: Q01DX005 (ip), vehicle: Klucel (hydroxypropylcellulose) (HPC)): 127 and 140 % of control
T/C (dose: 12.0 mg/kg/injection, schedule: Q01DX005 (ip), vehicle: Klucel (hydroxypropylcellulose) (HPC)): 135 and 139 % of control
T/C (dose: 24.0 mg/kg/injection, schedule: Q01DX005 (ip), vehicle: Klucel (hydroxypropylcellulose) (HPC)): 147 and 148 % of control

COc1cccc2c1C(=N)c1c(O)c3c(c(O)c1C2=O)CC(O)(C(=O)CO)CC3OC1CC(N2CCOCC2C#N)C(O)C(C)O1 (stereo not drawn)
T/C (dose: 0.25 mg/kg/injection, schedule: Q04DX003 (ip), vehicle: saline): 148 % of control
T/C (dose: 0.5 mg/kg/injection, schedule: Q04DX003 (ip), vehicle: saline): 145 % of control
survivor count (dose: 2.0 mg/kg/injection, schedule: Q04DX003 (ip), vehicle: saline): 5 of 6 on day 9

Nc1ccc2nc[nH]c2c1
survivor count [4]: 4 of 6
survivor count [5]: 0 of 6

CC(=O)/C(=C\c1ccccc1)C(=O)CCN(C)C
T/C (dose: 50.0 mg/kg/injection, schedule: Q01DX005 (ip), vehicle: saline with Tween-80): 125 % of control
T/C [6]: 125 and 129 % of control
survivor count [7]: 0 of 5 and 1 of 5

CCCCC#CC(=O)O
survivor count [2]: 0 of 6

NCCNc1ccc(NCCN)c2c1C(=O)c1ccccc1C2=O
T/C (dose: 1.56 mg/kg/injection, schedule: Q01DX009 (ip), vehicle: distilled water + alcohol): 137 % of control
survivor count (dose: 32.0 mg/kg/injection, schedule: Q01DX009 (ip), vehicle: acid diluted with saline): 5 of 8
survivor count (dose: 50.0 mg/kg/injection, schedule: Q01DX009 (ip), vehicle: other): 6 of 6
survivor count (dose: 100.0 mg/kg/injection, schedule: Q01DX009 (ip), vehicle: other): 0 of 6
survivor count (dose: 200.0 mg/kg/injection, schedule: Q01DX009 (ip), vehicle: other): 1 of 6
survivor count [10]: 1 of 6

COc1cccc2c1C(=O)c1c(O)c3c(c(O)c1C2=O)C[C@@](O)(C(C)=O)C[C@@H]3OC1CC(NC(C)C)C(O)C(C)O1 (stereo partly drawn)
T/C (dose: 1.56 mg/kg/injection, schedule: Q01DX009 (ip), vehicle: water): 131 and 137 % of control
T/C (dose: 3.13 mg/kg/injection, schedule: Q01DX009 (ip), vehicle: water): 139 and 144 % of control
T/C (dose: 18.8 mg/kg/injection, schedule: Q04DX003 (ip), vehicle: water): 125 % of control
survivor count (dose: 25.0 mg/kg/injection, schedule: Q01DX009 (ip), vehicle: water): 6 of 6
T/C (dose: 37.5 mg/kg/injection, schedule: Q04DX003 (ip), vehicle: water): 127 and 141 % of control
survivor count (dose: 50.0 mg/kg/injection, schedule: Q01DX009 (ip), vehicle: water): 4 of 6
T/C (dose: 75.0 mg/kg/injection, schedule: Q04DX003 (ip), vehicle: water): 134 and 148 % of control
survivor count (dose: 300.0 mg/kg/injection, schedule: Q04DX003 (ip), vehicle: water): 1 of 6

C=CCC(N)C(=O)O (stereo not drawn)
survivor count [9]: 0 of 5

OC1CSCc2ccccc21 (stereo not drawn)
survivor count [10]: 5 of 6
